# Reference: the supplement of paper PMC4962491
# Structures can show the parent of a compound that is named as a salt. ± gives the standard deviation of the averaged measurements. Only a part is listed here, and it is no random draw. This data set is noisy: repeats of one test often differ as much as different tests do.
# Tested on: FaDu
# Test: mitochondrial oxygen consumption rate normalised to cell number, Z score over the library; higher = higher oxygen consumption (negative = OCR reduction)
# Conditions: treatment time 24 h, assay medium: 5 mM galactose, 5 mM pyruvate, 4 mM glutamine
# Description: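 Primary screen: FaDu cells were incubated 24 h with Pharmakon 1600 / TDI oncology set compounds at 2 or 10 uM. Mitochondrial-specific OCR (basal minus 2 uM antimycin A) was measured on a Seahorse XF96 in assay medium with 5 mM galactose, 5 mM pyruvate and 4 mM glutamine, then corrected for Hoechst cell number and expressed as a Z score […]. Compounds that cut cell number by >66% were excluded. Two repeats.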
SMILES,mitochondrial oxygen consumption rate normalised (2 µM),mitochondrial oxygen consumption rate normalised (10 µM)
Nc1nc(N)nc(NC2CC2)n1,-0.138 ± 0.52,
CN1[C@@H]2CC[C@H]1C[C@@H](OC(=O)[C@H](CO)c1ccccc1)C2,-0.902 ± 0.12,
COc1ccc2c(c1)[C@]13CCCC[C@@H]1[C@H](C2)N(C)CC3,0.183 ± 1.4,
C=C[C@H]1CN2CC[C@H]1C[C@H]2[C@H](O)c1ccnc2ccccc12,-0.108 ± 0.25,
C=CC[C@]1(O)CC[C@H]2[C@@H]3CCC4=CC(=O)CCC4=C3C=C[C@@]21C,-0.442 ± 0.19,
C1CCc2nnnn2CC1,-0.656 ± 0.029,-0.625 ± 0.34
CC(Cc1ccc(O)cc1)NCC(O)c1cc(O)cc(O)c1 (stereo not drawn),1.48 ± 0.59,
C=C[C@H]1CN2CC[C@H]1C[C@@H]2[C@@H](O)c1ccnc2ccccc12,-0.0916 ± 0.46,
C=CCN=C=S,0.451 ± 0.0065,
CC(C)CC(N(C)C)C1(c2ccc(Cl)cc2)CCC1 (stereo not drawn),0.42 ± 1.2,
O=C([O-])c1ccccc1-c1c2cc(Br)c(=O)cc-2oc2[c]([Hg+])c([O-])c(Br)cc12.[Na+].[Na+].[OH-],1.13 ± 0.65,
COP(=S)(OC)Oc1ccc(SC)c(C)c1,0.484 ± 0.49,
O=c1[nH]c2ccccc2n1CCCN1CCC(n2c(=O)[nH]c3cc(Cl)ccc32)CC1,0.1 ± 0.46,-0.0948 ± 0.24
C#C[C@]1(O)CC[C@H]2[C@@H]3CCC4=CC(=O)CC[C@]4(C)[C@H]3CC[C@@]21C,-1.02 ± 0.4,
CC(C)[N+](C)(CCC(C(N)=O)(c1ccccc1)c1ccccc1)C(C)C,-1.5 ± 0.83,
O=C([O-])Cc1ccccc1.[Na+],0.337 ± 0.27,
Cn1c(CCCC(=O)O)nc2cc(N(CCCl)CCCl)ccc21 [Bendamustine HCl],0.48 ± 0.28,
CN[C@@H]1[C@@H](O)[C@@H](O[C@@H]2[C@@H](O)[C@H](O[C@H]3O[C@H](CN)CC[C@H]3N)[C@@H](N)C[C@H]2N)OC[C@]1(C)O.CN[C@@H]1[C@@H](O)[C@@H](O[C@@H]2[C@@H](O)[C@H](O[C@H]3O[C@H]([C@@H](C)N)CC[C@H]3N)[C@@H](N)C[C@H]2N)OC[C@]1(C)O.CN[C@@H]1[C@@H](O)[C@@H](O[C@@H]2[C@@H](O)[C@H](O[C@H]3O[C@H]([C@@H](C)NC)CC[C@H]3N)[C@@H](N)C[C@H]2N)OC[C@]1(C)O,-0.239 ± 0.74,
CN1CCN(C(=O)O[C@H]2c3nccnc3C(=O)N2c2ccc(Cl)cn2)CC1,-0.274 ± 1,-0.823 ± 0.029
NC(=O)c1cc([N+](=O)[O-])cc([N+](=O)[O-])c1,-1.22 ± 1.4,
O=C1CC[C@@]2(O)[C@H]3Cc4ccc(O)c5c4[C@@]2(CCN3CC2CC2)[C@H]1O5,0.973 ± 1.2,
NCC(CC(=O)O)c1ccc(Cl)cc1 (stereo not drawn),0.559 ± 0.74,
CCOC(=O)CC(SP(=S)(OC)OC)C(=O)OCC (stereo not drawn),1.02 ± 1.3,
CC(N)Cc1ccc(O)cc1 (stereo not drawn),-0.132 ± 0.17,
CC(NC(C)(C)C)C(=O)c1cccc(Cl)c1 (stereo not drawn),1.28 ± 0.36,

SMILES,mitochondrial oxygen consumption rate normalised (2 µM),mitochondrial oxygen consumption rate normalised (10 µM)
O=C(O)CCCO,0.441 ± 0.14,
NCc1cccnc1,-0.0792 ± 0.3,
C=C/C=C\CC1=C(C)[C@@H](OC(=O)[C@@H]2[C@@H](/C=C(\C)C(=O)OC)C2(C)C)CC1=O.C=C/C=C\CC1=C(C)[C@@H](OC(=O)[C@@H]2[C@@H](C=C(C)C)C2(C)C)CC1=O,-0.533 ± 1.1,
CN1[C@@H]2C[C@@H](OC(=O)[C@H](CO)c3ccccc3)C[C@H]1[C@@H]1O[C@@H]12,0.405 ± 0.51,
O=[N+]([O-])C(Br)(CO)CO,-0.891 ± 0.095,
CN1C[C@H](C(=O)N[C@]2(C)O[C@@]3(O)[C@@H]4CCCN4C(=O)[C@H](Cc4ccccc4)N3C2=O)C=C2c3cccc4[nH]cc(c34)C[C@H]21,0.0928 ± 0.47,
[O-][n+]1ccccc1[S-].[O-][n+]1ccccc1[S-].[Zn+2],0.46 ± 0.59,
C=CCN1CC[C@]23c4c5ccc(O)c4O[C@H]2C(=O)CC[C@@]3(O)[C@H]1C5,0.369 ± 2,
O=c1n(Cl)c(=O)n(Cl)c(=O)n1Cl,0.743 ± 0.18,
COP(=O)(OC)C(O)C(Cl)(Cl)Cl (stereo not drawn),0.185 ± 0.23,
COP(=O)(OC)OC=C(Cl)Cl,-0.149 ± 0.52,
S=C=NCc1ccccc1,0.712 ± 0.78,-4.7 ± 0.66
C[C@]12CCC(=O)C=C1C=C[C@@H]1[C@@H]2CC[C@@]2(C)[C@H]1CC[C@@]2(O)CCC(=O)O,-0.167 ± 0.077,
Cc1cccc(C)c1NC(=O)CN1CCCC1=O,0.485 ± 1.2,
CC[C@@H](C(=O)[C@@H](C)[C@@H](O)[C@H](C)[C@@H]1O[C@@H]([C@@H](CC)C(=O)O)CC[C@@H]1C)[C@H]1O[C@]2(C=C[C@@H](O)[C@]3(CC[C@@](C)([C@H]4CC[C@](O)(CC)[C@H](C)O4)O3)O2)[C@H](C)C[C@@H]1C,-0.953 ± 0.61,
NCC(O)c1ccc(O)cc1 (stereo not drawn),-1.19 ± 0.1,
Cc1ccc(/N=C/N(C)/C=N/c2ccc(C)cc2C)c(C)c1,-0.22 ± 0.011,
O=c1c2ccccc2[se]n1-c1ccccc1,-0.849 ± 0.56,
c1ccc2c(c1)Nc1ccccc1S2,1.1 ± 0.42,
C[C@]12CC[C@H]3[C@@H](CCC4=CC(=O)CC[C@@]43C)[C@@H]1CC[C@@H]2O,0.59 ± 0.5,
C[C@]12CC[C@@H]3c4ccc(OC(=O)N(CCCl)CCCl)cc4CC[C@H]3[C@@H]1CC[C@@H]2OP(=O)(O)O [Estramustine phosphate],1.09 ± 0.15,
CC[C@@H](CO)NC(=O)[C@@H]1C=C2c3cccc4c3c(cn4C)C[C@H]2N(C)C1,-0.207 ± 0.096,
COc1cc2c(c(OC)c1OC)-c1ccc(OC)c(=O)cc1[C@@H](NC(C)=O)CC2,-0.775 ± 1.5,
C[C@]12CC[C@H](O)CC1=CC[C@@H]1[C@@H]2CC[C@]2(C)C(=O)CC[C@@H]12,0.104 ± 0.14,
